The results in this text go back to paper PMC10052652 (Molecules, 2023).

Common to all, as to type: cell-based
Test [1] deals with HCT116 cells. Kind of test: Cytotoxic activity, MTT assay, HCT116. The note with it: Homo sapiens, HCT-116, 72 h, read-out: IC50 HCT116, MTT, 72 h. The method, then:
(§1) The cancer cell lines used in this study were HCT116 (colorectal carcinoma), IGROV1 (ovarian cancer), OVCAR3 (ovarian cancer), and MCF7 (mammary gland/breast cancer). […] Cell lines were maintained in culture and were incubated at 37 °C in an incubator with 5% CO2 in a humidified atmosphere. All tests were established at 80% of confluence, and viability was estimated with a trypan blue exclusion assay.
(§2) The cytotoxic activities of molecules against cancer cell lines were evaluated using an MTT assay. The MTT colorimetric assay was performed using 96-well plates. Cells were seeded in a 96-well plate, at a concentration of 10 × 10^3 cells/well for HCT116 and 12 × 10^3 cells/well for MCF7, IGROV1, and OVAR. Adherent cells were dispatched and incubated at 37 °C overnight in a 5% CO2-enriched atmosphere. […] After that, the medium was removed, and cells were treated with 50 µL of 3-(4,5-dimethylthazolk-2-yl)-2,5-diphenyl tetrazolium bromide (MTT) solution (3 mg/mL in PBS) at 37 °C for 20 to 40 min. To dissolve the […], we added 80 µL of 100% DMSO. Optical density was measured at 540 nm. All tests were established in triplicate. […]
On the technique in general: Tetrazolium dyes change colour on reduction, which living cells bring about.

Test [2] has as its system OVCAR-3 cells. Kind of test: Cytotoxic activity, MTT assay, OVCAR-3. The note with it: Homo sapiens, OVCAR-3, 72 h, read-out: IC50 OVCAR-3. The method, then: as §1, §2
Test [3] deals with MCF7 cells. Put plainly: Cytotoxic activity, MTT assay, MCF7. The following applies: Homo sapiens, MCF7, 72 h. As for the experimental part:
Optical density was measured at 540 nm. All tests were established in triplicate.

The test system of test [4] is SKOV-3 cells. Kind of test: Cytotoxic activity, MTT assay, SKOV-3. The following applies: Homo sapiens, SK-OV-3, 72 h.

SMILES strings stand for the structures.

Usually IC50 stands for the concentration at which inhibition is half-maximal. Take `CC/C(=C(\c1ccccc1)c1ccc(OCCN(C)C)cc1)c1ccccc1` [Tamoxifen, reference compound]: the IC50 in test [1] was found to be 1000 ± 200 nM; in test [2], 1400 ± 300 nM; in test [3], 1000 ± 100 nM; in test [4] it was 1300 ± 100 nM.
